Experimental data as given in the supplement of paper PMC10849652.
Some of the results follow.

Chains of the proteins cited; added tags and fusions are not shown. Lines headed by an entry give the natural chain unless they say otherwise; changes in a name come on top.
UniProt Q9P2W9: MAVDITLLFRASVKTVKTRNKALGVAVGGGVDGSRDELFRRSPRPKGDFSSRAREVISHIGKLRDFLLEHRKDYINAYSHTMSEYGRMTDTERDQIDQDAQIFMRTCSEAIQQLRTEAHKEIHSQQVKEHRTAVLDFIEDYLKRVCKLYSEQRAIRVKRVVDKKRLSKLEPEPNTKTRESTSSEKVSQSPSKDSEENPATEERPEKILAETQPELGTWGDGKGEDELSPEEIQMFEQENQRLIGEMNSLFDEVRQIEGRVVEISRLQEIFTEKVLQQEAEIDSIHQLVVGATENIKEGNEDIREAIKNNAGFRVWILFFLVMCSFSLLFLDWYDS
UniProt Q16594, whole entry, looked up: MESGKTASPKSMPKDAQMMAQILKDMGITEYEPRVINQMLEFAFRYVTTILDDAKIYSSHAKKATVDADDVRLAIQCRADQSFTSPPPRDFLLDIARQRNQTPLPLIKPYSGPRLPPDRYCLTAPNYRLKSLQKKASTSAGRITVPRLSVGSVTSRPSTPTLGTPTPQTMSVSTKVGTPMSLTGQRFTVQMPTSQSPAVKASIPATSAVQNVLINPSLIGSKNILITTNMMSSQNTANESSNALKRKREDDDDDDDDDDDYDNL
UniProt O15400: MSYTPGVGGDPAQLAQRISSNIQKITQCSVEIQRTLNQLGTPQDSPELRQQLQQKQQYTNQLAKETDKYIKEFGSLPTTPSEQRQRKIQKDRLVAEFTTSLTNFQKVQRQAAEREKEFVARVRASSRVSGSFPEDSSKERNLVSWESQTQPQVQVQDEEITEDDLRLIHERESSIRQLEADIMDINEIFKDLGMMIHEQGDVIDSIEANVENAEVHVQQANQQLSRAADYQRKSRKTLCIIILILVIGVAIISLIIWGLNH
UniProt P51687: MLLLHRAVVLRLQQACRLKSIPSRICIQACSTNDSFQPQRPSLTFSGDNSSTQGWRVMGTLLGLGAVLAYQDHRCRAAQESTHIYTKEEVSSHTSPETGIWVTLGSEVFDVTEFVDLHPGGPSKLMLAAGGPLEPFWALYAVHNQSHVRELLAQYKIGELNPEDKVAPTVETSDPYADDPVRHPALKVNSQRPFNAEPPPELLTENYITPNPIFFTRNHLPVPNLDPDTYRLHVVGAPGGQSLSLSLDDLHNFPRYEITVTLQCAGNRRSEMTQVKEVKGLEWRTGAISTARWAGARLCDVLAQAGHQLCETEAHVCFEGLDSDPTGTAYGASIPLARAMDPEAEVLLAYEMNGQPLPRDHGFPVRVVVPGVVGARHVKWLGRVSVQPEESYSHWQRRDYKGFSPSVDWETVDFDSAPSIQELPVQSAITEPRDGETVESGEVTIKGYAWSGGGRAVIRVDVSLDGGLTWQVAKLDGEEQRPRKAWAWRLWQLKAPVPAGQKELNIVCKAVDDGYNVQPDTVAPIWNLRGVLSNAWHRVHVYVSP
UniProt O43760: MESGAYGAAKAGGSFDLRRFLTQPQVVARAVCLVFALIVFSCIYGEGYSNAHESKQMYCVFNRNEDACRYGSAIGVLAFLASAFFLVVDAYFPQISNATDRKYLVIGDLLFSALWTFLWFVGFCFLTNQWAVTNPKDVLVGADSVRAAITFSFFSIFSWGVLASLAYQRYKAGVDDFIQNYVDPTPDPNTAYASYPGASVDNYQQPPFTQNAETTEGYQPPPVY
UniProt Q9Y3F4: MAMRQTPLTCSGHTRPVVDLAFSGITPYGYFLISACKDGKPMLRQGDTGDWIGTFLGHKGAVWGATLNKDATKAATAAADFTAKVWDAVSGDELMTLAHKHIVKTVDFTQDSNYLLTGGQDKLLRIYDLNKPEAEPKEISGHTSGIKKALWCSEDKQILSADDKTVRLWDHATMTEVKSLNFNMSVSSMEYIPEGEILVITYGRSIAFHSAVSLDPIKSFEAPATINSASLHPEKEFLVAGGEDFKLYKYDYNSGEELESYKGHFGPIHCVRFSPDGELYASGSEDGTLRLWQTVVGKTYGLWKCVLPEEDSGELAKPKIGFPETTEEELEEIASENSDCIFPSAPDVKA
UniProt Q7Z7C8, whole entry, looked up: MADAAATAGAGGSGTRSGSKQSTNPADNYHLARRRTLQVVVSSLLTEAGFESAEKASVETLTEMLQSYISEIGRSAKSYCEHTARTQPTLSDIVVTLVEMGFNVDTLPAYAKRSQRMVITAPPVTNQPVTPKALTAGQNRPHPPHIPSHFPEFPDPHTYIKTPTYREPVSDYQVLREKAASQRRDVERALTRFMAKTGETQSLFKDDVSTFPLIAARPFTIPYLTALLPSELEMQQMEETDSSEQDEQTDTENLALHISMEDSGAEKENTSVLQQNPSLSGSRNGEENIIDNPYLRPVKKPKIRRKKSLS
UniProt Q9UNE7: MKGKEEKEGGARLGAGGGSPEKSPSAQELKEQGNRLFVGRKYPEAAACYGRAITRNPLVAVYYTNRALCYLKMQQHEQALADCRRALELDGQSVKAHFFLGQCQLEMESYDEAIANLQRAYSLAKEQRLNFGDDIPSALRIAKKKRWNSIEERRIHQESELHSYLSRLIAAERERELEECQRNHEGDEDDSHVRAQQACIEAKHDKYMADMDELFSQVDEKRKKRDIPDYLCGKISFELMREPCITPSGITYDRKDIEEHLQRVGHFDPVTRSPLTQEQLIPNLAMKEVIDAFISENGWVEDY
UniProt O14662: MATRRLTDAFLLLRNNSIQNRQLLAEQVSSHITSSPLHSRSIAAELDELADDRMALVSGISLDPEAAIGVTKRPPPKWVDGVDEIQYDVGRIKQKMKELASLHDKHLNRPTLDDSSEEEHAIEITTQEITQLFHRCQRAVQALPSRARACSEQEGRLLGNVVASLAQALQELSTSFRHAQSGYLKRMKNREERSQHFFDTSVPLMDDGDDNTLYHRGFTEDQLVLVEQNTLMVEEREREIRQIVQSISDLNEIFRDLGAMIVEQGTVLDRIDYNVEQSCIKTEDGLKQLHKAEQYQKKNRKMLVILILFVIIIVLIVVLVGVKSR
UniProt Q9UBS9: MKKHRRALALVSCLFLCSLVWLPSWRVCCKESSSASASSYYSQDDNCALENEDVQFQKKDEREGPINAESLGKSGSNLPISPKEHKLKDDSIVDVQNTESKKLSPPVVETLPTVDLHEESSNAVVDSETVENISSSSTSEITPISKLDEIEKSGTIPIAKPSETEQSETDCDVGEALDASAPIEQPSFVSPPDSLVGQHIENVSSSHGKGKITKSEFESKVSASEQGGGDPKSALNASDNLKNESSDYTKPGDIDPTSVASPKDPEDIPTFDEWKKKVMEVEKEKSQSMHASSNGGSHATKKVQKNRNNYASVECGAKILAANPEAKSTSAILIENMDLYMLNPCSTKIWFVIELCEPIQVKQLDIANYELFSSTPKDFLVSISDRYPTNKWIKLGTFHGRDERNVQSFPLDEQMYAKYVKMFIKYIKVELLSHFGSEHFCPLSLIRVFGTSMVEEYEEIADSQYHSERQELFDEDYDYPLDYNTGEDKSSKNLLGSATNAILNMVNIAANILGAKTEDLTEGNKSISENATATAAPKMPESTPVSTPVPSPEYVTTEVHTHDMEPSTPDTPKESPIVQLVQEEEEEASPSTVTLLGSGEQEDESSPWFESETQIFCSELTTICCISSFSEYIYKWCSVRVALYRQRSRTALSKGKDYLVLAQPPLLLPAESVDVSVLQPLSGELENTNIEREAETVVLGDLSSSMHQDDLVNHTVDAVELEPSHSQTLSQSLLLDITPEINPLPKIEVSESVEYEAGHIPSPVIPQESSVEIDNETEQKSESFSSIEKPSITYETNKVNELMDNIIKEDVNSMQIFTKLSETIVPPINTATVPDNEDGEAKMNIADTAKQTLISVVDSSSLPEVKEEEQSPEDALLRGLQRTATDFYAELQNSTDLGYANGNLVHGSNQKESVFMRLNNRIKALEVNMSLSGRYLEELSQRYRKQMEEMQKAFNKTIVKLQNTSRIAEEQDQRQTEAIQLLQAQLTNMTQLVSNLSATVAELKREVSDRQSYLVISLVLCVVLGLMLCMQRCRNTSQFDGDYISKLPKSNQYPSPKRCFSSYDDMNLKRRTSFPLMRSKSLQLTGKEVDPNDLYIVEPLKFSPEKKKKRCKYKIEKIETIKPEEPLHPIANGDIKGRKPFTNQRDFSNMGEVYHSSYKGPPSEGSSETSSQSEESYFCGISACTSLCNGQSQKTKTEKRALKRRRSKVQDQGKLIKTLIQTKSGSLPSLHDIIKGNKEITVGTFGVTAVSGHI
UniProt Q13148, whole entry, looked up: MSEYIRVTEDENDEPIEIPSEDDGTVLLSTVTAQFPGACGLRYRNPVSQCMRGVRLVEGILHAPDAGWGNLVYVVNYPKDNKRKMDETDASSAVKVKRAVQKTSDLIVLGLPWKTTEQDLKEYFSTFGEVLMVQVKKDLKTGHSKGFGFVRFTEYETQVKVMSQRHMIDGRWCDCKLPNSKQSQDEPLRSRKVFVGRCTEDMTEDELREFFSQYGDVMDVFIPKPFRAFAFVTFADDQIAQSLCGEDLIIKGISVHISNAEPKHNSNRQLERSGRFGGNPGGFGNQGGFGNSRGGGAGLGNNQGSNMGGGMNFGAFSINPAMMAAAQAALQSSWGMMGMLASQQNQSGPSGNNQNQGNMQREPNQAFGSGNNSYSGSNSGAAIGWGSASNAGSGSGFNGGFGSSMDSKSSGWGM
UniProt Q5T5C0: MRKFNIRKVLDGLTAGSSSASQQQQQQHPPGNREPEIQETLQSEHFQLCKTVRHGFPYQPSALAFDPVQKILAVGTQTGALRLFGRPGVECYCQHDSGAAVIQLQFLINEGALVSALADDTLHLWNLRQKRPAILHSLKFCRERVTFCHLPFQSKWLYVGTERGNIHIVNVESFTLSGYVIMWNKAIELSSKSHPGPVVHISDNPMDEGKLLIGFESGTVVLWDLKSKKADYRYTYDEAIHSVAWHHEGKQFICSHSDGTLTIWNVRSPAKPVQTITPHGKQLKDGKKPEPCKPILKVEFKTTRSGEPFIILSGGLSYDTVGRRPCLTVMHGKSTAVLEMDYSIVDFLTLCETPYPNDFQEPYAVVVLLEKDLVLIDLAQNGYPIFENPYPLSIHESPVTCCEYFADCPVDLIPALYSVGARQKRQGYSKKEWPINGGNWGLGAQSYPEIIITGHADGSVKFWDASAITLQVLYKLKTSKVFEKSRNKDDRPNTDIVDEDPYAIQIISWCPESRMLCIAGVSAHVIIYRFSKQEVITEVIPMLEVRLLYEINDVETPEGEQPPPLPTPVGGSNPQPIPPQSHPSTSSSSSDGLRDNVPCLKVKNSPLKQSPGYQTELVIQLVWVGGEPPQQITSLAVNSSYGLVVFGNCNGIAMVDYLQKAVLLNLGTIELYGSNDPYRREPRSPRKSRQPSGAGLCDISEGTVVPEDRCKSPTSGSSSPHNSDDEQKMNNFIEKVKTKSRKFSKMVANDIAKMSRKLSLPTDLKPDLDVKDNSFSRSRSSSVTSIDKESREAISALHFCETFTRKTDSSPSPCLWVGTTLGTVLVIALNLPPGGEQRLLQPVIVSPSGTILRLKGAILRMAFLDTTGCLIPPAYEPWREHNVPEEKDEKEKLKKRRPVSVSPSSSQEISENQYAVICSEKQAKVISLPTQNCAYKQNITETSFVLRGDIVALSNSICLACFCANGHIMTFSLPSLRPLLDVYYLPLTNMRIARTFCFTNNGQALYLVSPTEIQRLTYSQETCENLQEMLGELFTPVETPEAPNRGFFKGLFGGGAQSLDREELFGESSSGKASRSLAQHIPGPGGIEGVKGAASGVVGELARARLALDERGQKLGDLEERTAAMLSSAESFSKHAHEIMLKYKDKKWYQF
UniProt Q6P1N9: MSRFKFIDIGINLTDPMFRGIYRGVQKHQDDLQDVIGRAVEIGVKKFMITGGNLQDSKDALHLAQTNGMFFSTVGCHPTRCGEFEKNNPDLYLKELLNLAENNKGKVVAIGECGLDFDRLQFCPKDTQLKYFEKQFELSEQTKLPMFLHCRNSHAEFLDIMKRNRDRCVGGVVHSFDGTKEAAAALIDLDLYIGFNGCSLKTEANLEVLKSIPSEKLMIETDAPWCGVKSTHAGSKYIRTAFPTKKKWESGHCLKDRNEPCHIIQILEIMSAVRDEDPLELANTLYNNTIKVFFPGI
UniProt P50225: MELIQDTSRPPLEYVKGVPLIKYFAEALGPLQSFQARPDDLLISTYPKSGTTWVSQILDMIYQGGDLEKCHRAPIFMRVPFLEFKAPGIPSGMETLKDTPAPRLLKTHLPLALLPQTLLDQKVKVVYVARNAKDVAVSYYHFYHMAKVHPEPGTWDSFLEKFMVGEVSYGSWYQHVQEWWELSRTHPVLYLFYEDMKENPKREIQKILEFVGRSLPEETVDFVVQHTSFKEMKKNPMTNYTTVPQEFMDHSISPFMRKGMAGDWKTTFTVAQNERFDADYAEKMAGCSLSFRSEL

Columns and labels:
Assay in all cases: log2 fold change, soluble protein after heating vs DMSO (PISA); higher = thermal stabilisation; K562 cells, 10 uM, 30 min; active = over 0.2 and 3.5 SD of the protein, either way, in both replicates (recomputed)
[1] = compound: NC(=O)Nc1cc(-c2cccc(F)c2)sc1C(=O)N[C@H]1CCCNC1
Procedure, shortened: (§1)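 Aliquots of K562 cells (2×10^6 cells/mL) treated with 10 μM compound for 30 min were heated for 3 min over 48°C-58°C. After pooling and extraction in PBS with 0.5% NP-40 at 4°C, soluble protein from a 21,000xg, 90 min spin was quantified by TMTpro 16plex LC-MS/MS with channel sums equalised. Thermal stability is expressed against control samples, from duplicates, as a log2 fold change.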

[2] = compound: NC(=O)c1cnc(N[C@@H]2CCCC[C@@H]2N)nc1Nc1cccc(-n2nccn2)c1
Procedure, shortened: as §1

[3] = compound: NC1(c2ccc(-c3nc4ccn5c(=O)[nH]nc5c4cc3-c3ccccc3)cc2)CCC1
Procedure, shortened: as §1

[4] = compound: NCC(=O)Nc1ccc(-n2nc(C(F)(F)F)cc2-c2ccc3c(ccc4ccccc43)c2)cc1
Procedure, shortened: as §1

[5] = compound: Nc1ccccc1NC(=O)c1ccc(CNC(=O)OCc2cccnc2)cc1 [entinostat]
Procedure, shortened: as §1

[6] = compound: O=C(CCCCCCC(=O)Nc1ccccc1)NO [vorinostat]
Procedure, shortened: as §1

[7] = compound: O=C(CCCCCCNC(=O)c1cnc(N(c2ccccc2)c2ccccc2Cl)nc1)NO [citarinostat]
Procedure, shortened: as §1

[8] = compound: O=C(O)c1ccc2c(c1)nc(Nc1cccc(Cl)c1)c1ccncc12 [silmitasertib]
Procedure, shortened: as §1

[9] = compound: O=C1NC(=O)C(c2cnc3ccccn23)=C1c1cn2c3c(cc(F)cc13)CN(C(=O)N1CCCCC1)CC2
Procedure, shortened: as §1

[10] = compound: c1cc(OCCN2CCCCC2)cc(-c2n[nH]c3ccc(-c4nnc[nH]4)cc23)c1
Procedure, shortened: as §1

Target | log2 fold change [1] | log2 fold change [2] | log2 fold change [3] | log2 fold change [4] | log2 fold change [5] | log2 fold change [6] | log2 fold change [7] | log2 fold change [8] | log2 fold change [9] | log2 fold change [10]
STX18 (UniProt Q9P2W9) | inactive: -0.058 | inactive: -0.055 | inactive: -0.091 | inactive: -0.044 | inactive: 0.035 | inactive: 0.071 | inactive: -0.007 | inactive: 0.001 | inactive: 0.059 | inactive: -0.041
TAF9 (UniProt Q16594) | inactive: -0.352 | inactive: -0.026 | inactive: 0.037 | inactive: 0 | active: -0.567 | inactive: 0.002 | inactive: -0.043 | inactive: -0.039 | inactive: -0.022 | inactive: 0.055
STX7 (UniProt O15400) | inactive: 0.036 | inactive: -0.02 | inactive: -0.072 | inactive: 0.011 | inactive: -0.028 | inactive: -0.093 | inactive: -0.002 | inactive: 0.017 | inactive: -0.006 | inactive: 0.079
SUOX (UniProt P51687) | inactive: -0.031 | inactive: -0.022 | inactive: 0.025 | inactive: -0.005 | inactive: -0.014 | inactive: -0.124 | inactive: -0.017 | inactive: -0.021 | inactive: -0.027 | inactive: 0.014
SYNGR2 (UniProt O43760) | inactive: -0.016 | inactive: -0.014 | inactive: 0.032 | inactive: -0.006 | inactive: 0.002 | inactive: -0.007 | inactive: -0.022 | inactive: 0.026 | inactive: -0.005 | inactive: 0.077
STRAP isoform 2 (UniProt Q9Y3F4) | inactive: 0.005 | inactive: -0.017 | inactive: 0.013 | inactive: 0.004 | inactive: -0.037 | inactive: 0.006 | inactive: -0.013 | inactive: -0.018 | inactive: 0.031 | inactive: -0.06
TAF8 isoform 2 (UniProt Q7Z7C8) | inactive: 0.073 | inactive: 0.021 | inactive: 0.016 | inactive: 0.028 | inactive: -0.066 | inactive: -0.052 | inactive: -0.062 | inactive: 0.049 | inactive: -0.013 | inactive: 0.008
STUB1 (UniProt Q9UNE7) | inactive: 0.003 | inactive: -0.177 | inactive: 0.138 | inactive: -0.01 | inactive: 0.028 | inactive: 0.05 | inactive: -0.033 | inactive: 0.233 | inactive: 0.18 | inactive: -0.134
STX16 isoform 2 (UniProt O14662) | inactive: -0.037 | inactive: 0.14 | inactive: -0.02 | inactive: 0.026 | inactive: -0.079 | inactive: 0.042 | inactive: -0.025 | inactive: 0.027 | inactive: -0.259 | inactive: -0.086
SUCO (UniProt Q9UBS9) | inactive: -0.066 | inactive: 0.037 | inactive: -0.077 | inactive: -0.154 | inactive: -0.033 | inactive: -0.035 | inactive: -0.172 | inactive: -0.22 | inactive: 0.055 | inactive: -0.36
TARDBP (UniProt Q13148) | inactive: 0.043 | inactive: -0.018 | inactive: 0.146 | inactive: -0.042 | inactive: -0.02 | inactive: 0.146 | inactive: -0.065 | inactive: 0.12 | inactive: 0.232 | inactive: -0.129
STXBP5 (UniProt Q5T5C0) | inactive: 0.006 | inactive: -0.022 | inactive: -0.145 | inactive: -0.033 | inactive: -0.011 | inactive: 0.004 | inactive: 0.024 | inactive: 0.041 | inactive: -0.04 | inactive: -0.003
TATDN1 (UniProt Q6P1N9) | inactive: -0.039 | inactive: 0.045 | inactive: -0.016 | inactive: 0.001 | inactive: -0.006 | inactive: 0.002 | inactive: 0.005 | inactive: 0.033 | inactive: 0.02 | inactive: 0.01
SULT1A1 (UniProt P50225) | inactive: -0.049 | inactive: 0.039 | inactive: -0.179 | inactive: 0.123 | inactive: 0.133 | inactive: 0.063 | inactive: 0.056 | inactive: -0.038 | inactive: -0.095 | inactive: 0.032

Copied from the list.
TARDBP (UniProt Q13148) – log2 fold change [7]: inactive: -0.065
SULT1A1 (UniProt P50225) – log2 fold change [3]: inactive: -0.179
